Binding data for one substance are collected here from doi:10.1101/2020.08.12.247874.

Sequences of proteins named here, by UniProt entry; tags and fusion partners are left off. Residues count along the entry.
UniProt O14492, residues 417-515: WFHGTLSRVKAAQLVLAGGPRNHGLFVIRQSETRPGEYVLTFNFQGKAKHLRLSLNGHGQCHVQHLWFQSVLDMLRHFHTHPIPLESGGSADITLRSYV

For the assay, the target named is phosphopeptide (F1163 – F1183, containing pY1173) derived from epidermal growth factor receptor (EGFR) (UniProt P00533). Put plainly: qYY2H.

No constants are given. Whether binding was seen depends on the method and setting. Some results given as binding are weak or reduced against the parent protein; the word gives no strength.

As for “SH2 domains of the adapter protein APS (from UniProt O14492 417-515) (domain or fragment)”, the binding result is given as “binds”.
